Results are given in words; binding and its absence hold for the method and conditions named. In cells and extracts the contact can be indirect. Here binding means that the protein was enriched with, or labelled near, the bait; the list need not be complete. No binding means not detected with the bait. For part of these data: Where a sequence is shown, tags or fusion partners need not be part of it.
T1: ALP1-GFP (pALP1::ALP1-GFP) (Arabidopsis thaliana) (UniProt Q94K49)
T1 sequence: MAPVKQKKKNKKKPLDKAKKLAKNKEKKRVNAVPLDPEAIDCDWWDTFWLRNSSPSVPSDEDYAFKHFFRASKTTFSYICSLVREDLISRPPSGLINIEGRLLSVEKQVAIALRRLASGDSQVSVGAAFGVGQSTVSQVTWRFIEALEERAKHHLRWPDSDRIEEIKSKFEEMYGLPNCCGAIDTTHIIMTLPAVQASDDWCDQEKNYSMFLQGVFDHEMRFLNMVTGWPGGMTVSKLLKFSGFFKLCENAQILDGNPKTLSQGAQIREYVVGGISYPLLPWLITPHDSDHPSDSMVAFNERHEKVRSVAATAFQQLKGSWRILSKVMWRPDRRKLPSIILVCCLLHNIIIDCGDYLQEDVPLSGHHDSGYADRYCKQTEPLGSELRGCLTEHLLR

Protein sequences, listed by entry. Tags and fused reporters are not part of them. Lines headed by an entry give the natural chain unless they say otherwise; changes in a name come on top.
UniProt F4KH55: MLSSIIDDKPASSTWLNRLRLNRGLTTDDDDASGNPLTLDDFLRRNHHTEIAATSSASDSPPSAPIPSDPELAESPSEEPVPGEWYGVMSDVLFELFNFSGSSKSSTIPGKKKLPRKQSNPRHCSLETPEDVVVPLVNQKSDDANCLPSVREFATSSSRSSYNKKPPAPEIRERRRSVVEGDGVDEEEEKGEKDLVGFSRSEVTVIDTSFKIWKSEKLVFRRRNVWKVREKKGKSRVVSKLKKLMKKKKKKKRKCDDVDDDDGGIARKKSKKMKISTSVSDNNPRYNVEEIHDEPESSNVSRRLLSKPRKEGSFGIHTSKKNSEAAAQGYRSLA


Key:
[1] = target: GS^rhino-ALP2 (35S::GS^rhino-ALP2) (Arabidopsis thaliana); test: affinity purification with mass spectrometry; two-step tandem affinity purification of GS^rhino-ALP2 from dark grown PSB-D suspension culture cells; non-transgenic cells as control; three replicates
[2] = target: GFP-ALP2 (35S::GFP-ALP2) (Arabidopsis thaliana) (UniProt F4KH55); test: affinity purification with mass spectrometry; IP of GFP-tagged bait from inflorescence extracts with GFP-trap agarose beads; 10mM Tris pH 7.5, 150 mM NaCl, 0.5% Igepal, 1% Triton; three independent experiments; 35S::GFP as control
[3] = target: T1, ALP1-GFP (pALP1::ALP1-GFP) (Arabidopsis thaliana); test: as above

| binding [1] | binding [2] | binding [3] | Binder |
| --- | --- | --- | --- |
| no binding | no binding | no binding | VRN5 (endogenous) (protein, UniProt Q9LHF5 1-602) MDSSSTKSKISHSRKTNKKSNKKHESNGKQQQQQDVDGGGGCLRSSWICKNASCRANVPKEDSFCKRCSCCVCHNFDENKDPSLWLVCEPEKSDDVEFCGLSCHIECAFREVKVGVIALGNLMKLDGCFCCYSCGKVSQILGCWKKQLVAAKEARRRDGLCYRIDLGYRLLNGTSRFSELHEIVRAAKSMLEDEVGPLDGPTARTDRGIVSRLPVAANVQELCTSAIKKAGELSANAGRDLVPAACRFHFEDIAPKQVTLRLIELPSAVEYDVKGYKLWYFKKGEMPEDDLFVDCSRTERRMVISDLEPCTEYTFRVVSYTEAGIFGHSNAMCFTKSVEILKPVDGKEKRTIDLVGNAQPSDREEKSSISSRFQIGQLGKYVQLAEAQEEGLLEAFYNVDTEKICEPPEEELPPRRPHGFDLNVVSVPDLNEEFTPPDSSGGEDNGVPLNSLAEADGGDHDDNCDDAVSNGRRKNNNDCLVISDGSGDDTGFDFLMTRKRKAISDSNDSENHECDSSSIDDTLEKCVKVIRWLEREGHIKTTFRVRFLTWFSMSSTAQEQSVVSTFVQTLEDDPGSLAGQLVDAFTDVVSTKRPNNGVMTSH |
| no binding | no binding | no binding | VEL1 (endogenous) (protein, UniProt Q9SUM4 1-714) MDSSLDGAAGDSSKCSEMSVDEKRQLVYELSKQSHLAAEVLQAWSRQEILQILCAEMGKERKYTGLTKVKIIETLLKIVSEKNSGECEGKKRDSDCLPIQRNTKRQRKVDNPSRYVIPATNIVTSNNASGSCSSVNTKGESTTIYCKNLACRAVLRQEDSFCRRCSCCICRKYDDNKDPSLWLTCSSDPPFEGESCGFSCHLECAFNTEKSGLGKDKQSEGCCFYCVSCGKANSLLECWKKQLTIAKETRRVEVLCYRLFLVQKLLKSSTKYRNLCEVVDEAVKTLEADVGPLTGLPMKMGRGIVNRLHSGPDVQKLCSSALESLETIATTPPDVAALPSPRSSKMQQDCSYVLSNEISADTATTGSTKIRFEDVNATSLTVVLASNEIPSPPNIVHYSIWHRKVPEKDYPEKSTCTLFIPNTRFVVSGLAPASEYCFKVVSYSGTREMGVDEINVLTRSAEEGANCSSAVERSVSPLTNCSTLSSNPSSVEAESNNDYIVPKKPSSKNEDNNSPSVDESAAKRMKRTTDSDIVQIEKDVEQIVLLDDEEQEAVLDKTESETPVVVTTKSLVGNRNSSDASLPITPFRSDEIKNRQARIEISMKDNCNNGDHSANGGTESGLEHCVKIIRQLECSGHIDKNFRQKFLTWYSLRATSQEIRVVKIFIDTFIDDPMALAEQLIDTFDDRVSIKRSAVGGSGASAVVPSGFCMKLWH |

Reference: paper PMC7282668
